Assay results as given in the supplement of paper PMC4604168 (melanoma cell lines).
Some of the results follow. Many values rest on one well or one pass, so single values are uncertain.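 The apoptosis fraction was the count of cleaved-PARP antibody-stained nuclei relative to all DNA-stained nuclei, imaged in 1,536-well plates. Screening doses were set so most cells survived, and baseline and induced cleaved-PARP levels vary greatly across cell lines.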

System: WM451Lu
Assay: cleaved PARP positive nuclei fraction relative to DMSO control; melanoma cells; higher = more apoptosis
Conditions: library dose: low library concentration; 72 h

Row | SMILES | cleaved PARP positive nuclei fraction [%]
1 | O=C(CCCCCCC(=O)Nc1ccccc1)NO [vorinostat] + O=C(Nc1cccc(Cl)c1)Nc1ncc(CCNc2ncnc3ccsc23)s1 [SNS314] (first compound 0.08 µM, partner dose 0.0008 µM) | 123
2 | Cn1cncc1[C@@](N)(c1ccc(Cl)cc1)c1ccc2c(c1)c(-c1cccc(Cl)c1)cc(=O)n2C [tipifarnib] + O=C(Nc1ccccc1)c1cc([N+](=O)[O-])ccc1Cl [GW9662] (first compound 0.01 µM, partner dose 2 µM) | 53.7
3 | C[C@@H]1CCN(C(=O)CC#N)C[C@@H]1N(C)c1ncnc2[nH]ccc12 + N#Cc1c(O)c2c(-c3ccc(-c4ccccc4O)cc3)csc2[nH]c1=O [A769662] (first compound 1 µM, partner dose 2 µM) | 62.5
4 | COCC[n+]1c2c(n(Cc3cnccn3)c1C)C(=O)c1ccccc1C2=O + CN(NC(=O)CC(=O)NN(C)C(=S)c1ccccc1)C(=S)c1ccccc1 [STA4783] (first compound 0.0004 µM, partner dose 0.006 µM) | 102
5 | O=C(CCCCCCC(=O)Nc1ccccc1)NO [vorinostat] + COC(=O)c1sccc1S(=O)(=O)Nc1ccc(Nc2ccccc2)cc1OC [GSK0660] (first compound 0.08 µM, partner dose 1 µM) | 130
6 | CO[C@@H]1[C@H](N(C)C(=O)c2ccccc2)C[C@H]2O[C@]1(C)n1c3ccccc3c3c4c(c5c6ccccc6n2c5c31)C(=O)NC4 [Midostaurin] + CN(NC(=O)CC(=O)NN(C)C(=S)c1ccccc1)C(=S)c1ccccc1 [STA4783] (first compound 0.08 µM, partner dose 0.006 µM) | 57.7
7 | NC(=O)Nc1cc(-c2cccc(F)c2)sc1C(=O)N[C@H]1CCCNC1 + O=C1NC(=O)/C(=C/c2ccc(-c3ccc(F)cc3O)o2)S1 [AS252424] (first compound 0.02 µM, partner dose 1 µM) | 263
8 | OCc1c[nH]c2ccccc12 [Indole-3-carbinol] + O=c1cc(-c2cccc3c2Sc2ccccc2S3)oc(N2CCOCC2)c1 [KU55933] (first compound 0.8 µM, partner dose 1 µM) | 23.8
9 | COCC[n+]1c2c(n(Cc3cnccn3)c1C)C(=O)c1ccccc1C2=O + C[C@@H]1CCN(C(=O)CC#N)C[C@@H]1N(C)c1ncnc2[nH]ccc12 [CP690550] (first compound 0.0004 µM, partner dose 1 µM) | 299
10 | CC(=O)c1c(C)c2cnc(Nc3ccc(N4CCNCC4)cn3)nc2n(C2CCCC2)c1=O [palbociclib] + COc1ccc(-c2ccc3c(N4CCOCC4)nc(N4C[C@@H](C)O[C@@H](C)C4)nc3n2)cc1CO [KU0063794] (first compound 0.04 µM, partner dose 0.02 µM) | 88.6
11 | CC(=O)c1c(C)c2cnc(Nc3ccc(N4CCNCC4)cn3)nc2n(C2CCCC2)c1=O [palbociclib] + COc1ccc(Cl)c(Nc2nc3ccccc3nc2NS(=O)(=O)c2cccc(NC(=O)C(C)(C)N)c2)c1 [XL147] (first compound 0.04 µM, partner dose 0.8 µM) | 101
12 | C=CCn1c(=O)c2cnc(Nc3ccc(N4CCN(C)CC4)cc3)nc2n1-c1cccc(C(C)(C)O)n1 + Cn1cncc1[C@@](N)(c1ccc(Cl)cc1)c1ccc2c(c1)c(-c1cccc(Cl)c1)cc(=O)n2C [tipifarnib] (first compound 0.02 µM, partner dose 0.01 µM) | 95.4
13 | Cc1cc(N2CCOCC2)cc2[nH]c(-c3c(NC[C@@H](O)c4cccc(Cl)c4)cc[nH]c3=O)nc12 + Cn1cc(/C=C2\C(=O)Nc3cccnc32)c2ccccc21 [GW441756] (first compound 0.2 µM, partner dose 0.4 µM) | 107
14 | CC(=O)c1c(C)c2cnc(Nc3ccc(N4CCNCC4)cn3)nc2n(C2CCCC2)c1=O [palbociclib] + COc1cc2ncnc(Nc3ccc(Oc4ccccc4)cc3)c2cc1OC [SrcI1] (first compound 0.04 µM, partner dose 2 µM) | 222
15 | OCc1c[nH]c2ccccc12 [Indole-3-carbinol] + C[C@@H]1CCN(C(=O)CC#N)C[C@@H]1N(C)c1ncnc2[nH]ccc12 [CP690550] (first compound 0.8 µM, partner dose 1 µM) | 60.3
16 | O=C(CCCCCCC(=O)Nc1ccccc1)NO [vorinostat] + N#Cc1c(O)c2c(-c3ccc(-c4ccccc4O)cc3)csc2[nH]c1=O [A769662] (first compound 0.08 µM, partner dose 2 µM) | 58.9
17 | C[C@@H]1CCN(C(=O)CC#N)C[C@@H]1N(C)c1ncnc2[nH]ccc12 + O=S(=O)(c1ccccc1)N(CC(F)(F)F)c1ccc(C(O)(C(F)(F)F)C(F)(F)F)cc1 [T0901317] (first compound 1 µM, partner dose 1.4 µM) | 55.9

Excerpt, nos. 6 to 11
Row | SMILES | cleaved PARP positive nuclei fraction [%]
6 | CO[C@@H]1[C@H](N(C)C(=O)c2ccccc2)C[C@H]2O[C@]1(C)n1c3ccccc3c3c4c(c5c6ccccc6n2c5c31)C(=O)NC4 [Midostaurin] + CN(NC(=O)CC(=O)NN(C)C(=S)c1ccccc1)C(=S)c1ccccc1 [STA4783] (first compound 0.08 µM, partner dose 0.006 µM) | 57.7
7 | NC(=O)Nc1cc(-c2cccc(F)c2)sc1C(=O)N[C@H]1CCCNC1 + O=C1NC(=O)/C(=C/c2ccc(-c3ccc(F)cc3O)o2)S1 [AS252424] (first compound 0.02 µM, partner dose 1 µM) | 263
8 | OCc1c[nH]c2ccccc12 [Indole-3-carbinol] + O=c1cc(-c2cccc3c2Sc2ccccc2S3)oc(N2CCOCC2)c1 [KU55933] (first compound 0.8 µM, partner dose 1 µM) | 23.8
9 | COCC[n+]1c2c(n(Cc3cnccn3)c1C)C(=O)c1ccccc1C2=O + C[C@@H]1CCN(C(=O)CC#N)C[C@@H]1N(C)c1ncnc2[nH]ccc12 [CP690550] (first compound 0.0004 µM, partner dose 1 µM) | 299
10 | CC(=O)c1c(C)c2cnc(Nc3ccc(N4CCNCC4)cn3)nc2n(C2CCCC2)c1=O [palbociclib] + COc1ccc(-c2ccc3c(N4CCOCC4)nc(N4C[C@@H](C)O[C@@H](C)C4)nc3n2)cc1CO [KU0063794] (first compound 0.04 µM, partner dose 0.02 µM) | 88.6
11 | CC(=O)c1c(C)c2cnc(Nc3ccc(N4CCNCC4)cn3)nc2n(C2CCCC2)c1=O [palbociclib] + COc1ccc(Cl)c(Nc2nc3ccccc3nc2NS(=O)(=O)c2cccc(NC(=O)C(C)(C)N)c2)c1 [XL147] (first compound 0.04 µM, partner dose 0.8 µM) | 101

The listing continues:

Row | SMILES | cleaved PARP positive nuclei fraction [%]
18 | NC(=O)Nc1cc(-c2cccc(F)c2)sc1C(=O)N[C@H]1CCCNC1 + COC(=O)c1sccc1S(=O)(=O)Nc1ccc(Nc2ccccc2)cc1OC [GSK0660] (first compound 0.02 µM, partner dose 1 µM) | 22.5
19 | C[C@]1(c2nc3c(C(N)=O)cccc3[nH]2)CCCN1 [Veliparib] + O=C(Nc1cccc(Cl)c1)Nc1ncc(CCNc2ncnc3ccsc23)s1 [SNS314] (first compound 1.4 µM, partner dose 0.0008 µM) | 268
20 | C[C@]1(c2nc3c(C(N)=O)cccc3[nH]2)CCCN1 [Veliparib] + OCCn1cc(-c2cnc3nnn(Cc4ccc5ncccc5c4)c3n2)cn1 [PF04217903] (first compound 1.4 µM, partner dose 1 µM) | 86.8
21 | COc1cc(Nc2ncc(F)c(Nc3ccc4c(n3)NC(=O)C(C)(C)O4)n2)cc(OC)c1OC [Tamatinib] + CC(C)(C)c1cnc(CSc2cnc(NC(=O)C3CCNCC3)s2)o1 [SNS-032] (first compound 0.4 µM, partner dose 0.01 µM) | 49.3
22 | NC(=O)Nc1cc(-c2cccc(F)c2)sc1C(=O)N[C@H]1CCCNC1 + O=C(Nc1ccccc1)c1cc([N+](=O)[O-])ccc1Cl [GW9662] (first compound 0.02 µM, partner dose 2 µM) | 171
23 | C#Cc1cccc(Nc2ncnc3cc(OCCOC)c(OCCOC)cc23)c1 [erlotinib] + Cn1c(Nc2ccc(C(F)(F)F)cc2)nc2cc(Oc3ccnc(-c4ncc(C(F)(F)F)[nH]4)c3)ccc21 [CHIR265] (first compound 0.8 µM, partner dose 0.08 µM) | 107
24 | C#Cc1cccc(Nc2ncnc3cc(OCCOC)c(OCCOC)cc23)c1 [erlotinib] + C=CCn1c(=O)c2cnc(Nc3ccc(N4CCN(C)CC4)cc3)nc2n1-c1cccc(C(C)(C)O)n1 [MK1775] (first compound 0.8 µM, partner dose 0.02 µM) | 80.8
25 | COCC[n+]1c2c(n(Cc3cnccn3)c1C)C(=O)c1ccccc1C2=O + COC(=O)c1sccc1S(=O)(=O)Nc1ccc(Nc2ccccc2)cc1OC [GSK0660] (first compound 0.0004 µM, partner dose 1 µM) | 308
26 | NC(=O)Nc1cc(-c2cccc(F)c2)sc1C(=O)N[C@H]1CCCNC1 + COc1ccc(COc2ccc(Cc3cnc(N)nc3N)cc2OC)cc1 [GW2580] (first compound 0.02 µM, partner dose 1 µM) | 129
27 | Cc1cc(N2CCOCC2)cc2[nH]c(-c3c(NC[C@@H](O)c4cccc(Cl)c4)cc[nH]c3=O)nc12 + CN(C)S(=O)(=O)c1ccc2c(c1)/C(=C/c1cc3c([nH]1)CCCC3)C(=O)N2 [SU6656] (first compound 0.2 µM, partner dose 0.4 µM) | 171
28 | C[C@@H]1CCN(C(=O)CC#N)C[C@@H]1N(C)c1ncnc2[nH]ccc12 + O=C1NC(=O)/C(=C/c2ccc(-c3ccc(F)cc3O)o2)S1 [AS252424] (first compound 1 µM, partner dose 1 µM) | 108
29 | NC(=O)Nc1cc(-c2cccc(F)c2)sc1C(=O)N[C@H]1CCCNC1 + CC(C)CCN1c2nc(Nc3cc(F)c(O)c(F)c3)ncc2N(C)C(=O)C1C [BID1870] (first compound 0.02 µM, partner dose 0.2 µM) | 91
30 | CO[C@@H]1[C@H](N(C)C(=O)c2ccccc2)C[C@H]2O[C@]1(C)n1c3ccccc3c3c4c(c5c6ccccc6n2c5c31)C(=O)NC4 [Midostaurin] + Cc1cc([N+](=O)[O-])ccc1NS(=O)(=O)c1cc(Cl)ccc1Cl [FH535] (first compound 0.08 µM, partner dose 1 µM) | 765
31 | CO[C@@H]1[C@H](N(C)C(=O)c2ccccc2)C[C@H]2O[C@]1(C)n1c3ccccc3c3c4c(c5c6ccccc6n2c5c31)C(=O)NC4 [Midostaurin] + O=C(O)C(=O)Nc1sc2c(c1C(=O)O)CCNC2 [TCS401] (first compound 0.08 µM, partner dose 1.66667 µM) | 107
32 | Cn1nnc2c(C(N)=O)ncn2c1=O [temozolomide] + Cn1cc(/C=C2\C(=O)Nc3cccnc32)c2ccccc21 [GW441756] (first compound 2 µM, partner dose 0.4 µM) | 325
33 | CC(C)(C)c1cnc(CSc2cnc(NC(=O)C3CCNCC3)s2)o1 + O=C(O)c1ccc(-c2c[nH]c3ncc(-c4ccccc4)cc23)cc1C1CCCC1 [GSK650394] (first compound 0.01 µM, partner dose 0.16 µM) | 46.6
